Experimental data from paper PMC5641085.
No constants are given. Whether binding was seen depends on the method and setting.

The chains behind the UniProt entries cited, without tags or fusion partners. Where a name states a change or a piece, a line headed by the entry shows the natural chain unless it says otherwise.
UniProt P08253: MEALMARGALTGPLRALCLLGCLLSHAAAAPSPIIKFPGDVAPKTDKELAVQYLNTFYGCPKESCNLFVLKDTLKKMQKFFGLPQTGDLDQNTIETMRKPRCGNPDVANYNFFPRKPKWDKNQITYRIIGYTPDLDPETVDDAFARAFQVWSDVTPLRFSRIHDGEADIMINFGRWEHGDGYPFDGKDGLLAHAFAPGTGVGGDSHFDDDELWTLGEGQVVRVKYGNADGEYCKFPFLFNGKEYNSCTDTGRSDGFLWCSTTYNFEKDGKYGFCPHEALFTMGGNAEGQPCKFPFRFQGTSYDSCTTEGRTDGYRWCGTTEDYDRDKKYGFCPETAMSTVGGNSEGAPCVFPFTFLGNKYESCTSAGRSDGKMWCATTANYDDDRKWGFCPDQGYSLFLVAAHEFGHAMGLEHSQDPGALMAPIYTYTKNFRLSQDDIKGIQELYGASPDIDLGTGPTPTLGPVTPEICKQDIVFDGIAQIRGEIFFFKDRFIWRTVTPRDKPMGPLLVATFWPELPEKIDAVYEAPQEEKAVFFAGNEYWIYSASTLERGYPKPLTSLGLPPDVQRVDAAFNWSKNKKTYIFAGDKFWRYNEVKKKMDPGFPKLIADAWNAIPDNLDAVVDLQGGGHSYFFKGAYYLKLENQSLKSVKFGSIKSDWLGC
UniProt P14780: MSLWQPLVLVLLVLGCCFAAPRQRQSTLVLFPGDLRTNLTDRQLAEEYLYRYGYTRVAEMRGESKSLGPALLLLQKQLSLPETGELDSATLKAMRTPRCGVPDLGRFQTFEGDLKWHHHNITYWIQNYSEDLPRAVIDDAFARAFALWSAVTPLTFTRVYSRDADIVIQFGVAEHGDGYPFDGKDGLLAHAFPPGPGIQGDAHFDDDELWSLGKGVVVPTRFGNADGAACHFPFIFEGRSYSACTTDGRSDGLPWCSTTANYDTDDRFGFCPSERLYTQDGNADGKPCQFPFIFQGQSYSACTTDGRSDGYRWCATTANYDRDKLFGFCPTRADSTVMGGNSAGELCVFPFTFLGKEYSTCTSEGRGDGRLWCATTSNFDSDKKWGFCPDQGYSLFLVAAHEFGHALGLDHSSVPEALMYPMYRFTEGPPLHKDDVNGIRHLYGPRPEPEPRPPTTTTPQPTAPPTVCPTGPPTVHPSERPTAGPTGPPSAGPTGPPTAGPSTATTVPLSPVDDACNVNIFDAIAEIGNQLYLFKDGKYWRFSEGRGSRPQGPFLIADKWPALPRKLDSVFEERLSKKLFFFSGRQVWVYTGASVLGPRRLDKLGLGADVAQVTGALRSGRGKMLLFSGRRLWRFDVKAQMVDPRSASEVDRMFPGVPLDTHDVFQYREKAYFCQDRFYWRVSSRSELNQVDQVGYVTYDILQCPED

Biological target: T1, Ubiquitin-conjugating enzyme E2 J2 (UBE2J2) (human (endogenous in human liver cancer cell lines HCCLM3 or SMMC7721)) (UniProt Q8N2K1)
T1 sequence: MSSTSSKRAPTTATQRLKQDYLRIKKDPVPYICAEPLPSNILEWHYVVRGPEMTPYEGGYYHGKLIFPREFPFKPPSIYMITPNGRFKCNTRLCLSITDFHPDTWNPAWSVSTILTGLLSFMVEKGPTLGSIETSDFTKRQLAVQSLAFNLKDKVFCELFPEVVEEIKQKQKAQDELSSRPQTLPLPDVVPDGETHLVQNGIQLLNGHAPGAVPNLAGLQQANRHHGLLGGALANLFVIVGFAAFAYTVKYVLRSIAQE
Assay: SPR; Biacore X100; anti-UBE2J2 antibody (and normal IgG) immobilised on a CM5 chip by EDC/NHS, blocked with 3% BSA; concentrated RIPA cell lysate injected, washed with HEPES buffer (50 mM HEPES, pH 7.4, 150 mM NaCl); proteins held with UBE2J2 detected by injecting antibodies against them

Row | binding | Substance
1 | no binding | E-Cadherin
2 | no binding | MMP-2 (from UniProt P08253) (enzyme)
3 | no binding | MMP-9 (from UniProt P14780) (enzyme)
